For at least one entry, the source does not settle the construct or the ends of the probe. At least one verdict was read from the data and is not stated in words by the source. Tags and fusion partners may be left off the protein sequences shown.
Biological target: T1, BZU2/ZmMUTE (Zea mays) (UniProt K7V1X7)
T1 sequence (looked up, limits assumed): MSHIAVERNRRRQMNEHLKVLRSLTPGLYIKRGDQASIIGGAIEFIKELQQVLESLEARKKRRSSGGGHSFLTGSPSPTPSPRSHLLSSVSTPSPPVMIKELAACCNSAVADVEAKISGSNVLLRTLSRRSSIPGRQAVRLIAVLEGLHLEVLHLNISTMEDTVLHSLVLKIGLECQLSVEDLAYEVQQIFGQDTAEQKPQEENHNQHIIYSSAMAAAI
Assay: EMSA
Details: cold probe competitor 2-, 5-, 10-fold; LightShift Chemiluminescent EMSA Kit (Thermo) per manufacturer; pH and temperature not stated; recombinant protein; label: 5' biotin (cold probe unlabeled)

Sequence	binding result
CAGCCACAACAGGTGTCCCTTTCAAGTGATCTCTGCA (double strand) [P2 (PAN2 promoter E-boxes -187, -200)]	binds
GAATGAGGGGCACCTGGAGAGCACAT (double strand) [P1 (PAN1 promoter E-box -27)]	binds
